This is one part of the list. Most values lie at the level of the controls, where differences are scatter.
These targets were tested with CN[C@@H]1C[C@H]2O[C@@](C)([C@@H]1OC)n1c3ccccc3c3c4c(c5c6ccccc6n2c5c31)C(=O)NC4 [staurosporine] (assay: log2 fold change of tryptic peptide abundance, ligand vs vehicle (limited proteolysis) (log2 ratio); higher = more trypsin-susceptible (destabilized)). Settings: ligand concentration: 20 uM; sample: K562 cleared lysate; digestion: 4 min, 22 C (HT-PELSA RT4min, Orbitrap Astral).

Sequences of proteins named here, by UniProt entry; tags and fusion partners are left off. A change or cut given only in a name is not applied to a line headed by its entry.
UniProt Q8NFP7: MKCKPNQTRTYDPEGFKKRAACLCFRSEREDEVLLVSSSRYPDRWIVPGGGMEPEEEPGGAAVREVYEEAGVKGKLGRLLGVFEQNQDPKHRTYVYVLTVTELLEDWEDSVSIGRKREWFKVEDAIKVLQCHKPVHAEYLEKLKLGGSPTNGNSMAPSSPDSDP
UniProt Q8NHZ8, whole entry: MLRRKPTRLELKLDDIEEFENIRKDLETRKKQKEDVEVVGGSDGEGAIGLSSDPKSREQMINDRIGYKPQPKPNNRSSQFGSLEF
UniProt Q8NBN7: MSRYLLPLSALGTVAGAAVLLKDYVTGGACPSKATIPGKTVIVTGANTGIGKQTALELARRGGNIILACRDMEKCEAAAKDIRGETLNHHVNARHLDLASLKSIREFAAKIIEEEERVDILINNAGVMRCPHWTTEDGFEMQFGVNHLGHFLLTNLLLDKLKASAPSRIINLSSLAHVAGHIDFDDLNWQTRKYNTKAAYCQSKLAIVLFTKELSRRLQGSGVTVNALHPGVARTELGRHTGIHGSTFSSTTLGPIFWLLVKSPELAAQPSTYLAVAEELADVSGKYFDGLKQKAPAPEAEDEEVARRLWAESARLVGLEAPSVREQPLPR
UniProt Q8N823: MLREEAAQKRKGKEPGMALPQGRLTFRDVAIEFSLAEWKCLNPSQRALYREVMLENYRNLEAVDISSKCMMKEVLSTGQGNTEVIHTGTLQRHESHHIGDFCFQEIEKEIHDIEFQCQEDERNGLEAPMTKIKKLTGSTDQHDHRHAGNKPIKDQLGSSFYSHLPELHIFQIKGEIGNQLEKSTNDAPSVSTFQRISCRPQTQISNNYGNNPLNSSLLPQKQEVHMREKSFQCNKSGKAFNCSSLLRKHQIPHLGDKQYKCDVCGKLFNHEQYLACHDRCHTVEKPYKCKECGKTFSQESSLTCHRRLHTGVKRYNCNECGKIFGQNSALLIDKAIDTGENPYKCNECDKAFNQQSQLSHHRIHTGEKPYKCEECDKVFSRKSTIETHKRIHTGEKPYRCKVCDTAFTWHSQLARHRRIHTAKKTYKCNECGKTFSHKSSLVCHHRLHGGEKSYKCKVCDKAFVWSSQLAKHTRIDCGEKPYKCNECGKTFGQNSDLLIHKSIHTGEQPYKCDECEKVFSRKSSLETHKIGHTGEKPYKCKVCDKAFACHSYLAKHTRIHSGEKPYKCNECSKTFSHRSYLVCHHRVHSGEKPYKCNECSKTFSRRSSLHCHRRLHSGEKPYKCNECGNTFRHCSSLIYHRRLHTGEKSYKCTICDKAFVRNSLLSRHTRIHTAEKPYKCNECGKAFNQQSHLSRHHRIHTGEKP
UniProt Q8NG48: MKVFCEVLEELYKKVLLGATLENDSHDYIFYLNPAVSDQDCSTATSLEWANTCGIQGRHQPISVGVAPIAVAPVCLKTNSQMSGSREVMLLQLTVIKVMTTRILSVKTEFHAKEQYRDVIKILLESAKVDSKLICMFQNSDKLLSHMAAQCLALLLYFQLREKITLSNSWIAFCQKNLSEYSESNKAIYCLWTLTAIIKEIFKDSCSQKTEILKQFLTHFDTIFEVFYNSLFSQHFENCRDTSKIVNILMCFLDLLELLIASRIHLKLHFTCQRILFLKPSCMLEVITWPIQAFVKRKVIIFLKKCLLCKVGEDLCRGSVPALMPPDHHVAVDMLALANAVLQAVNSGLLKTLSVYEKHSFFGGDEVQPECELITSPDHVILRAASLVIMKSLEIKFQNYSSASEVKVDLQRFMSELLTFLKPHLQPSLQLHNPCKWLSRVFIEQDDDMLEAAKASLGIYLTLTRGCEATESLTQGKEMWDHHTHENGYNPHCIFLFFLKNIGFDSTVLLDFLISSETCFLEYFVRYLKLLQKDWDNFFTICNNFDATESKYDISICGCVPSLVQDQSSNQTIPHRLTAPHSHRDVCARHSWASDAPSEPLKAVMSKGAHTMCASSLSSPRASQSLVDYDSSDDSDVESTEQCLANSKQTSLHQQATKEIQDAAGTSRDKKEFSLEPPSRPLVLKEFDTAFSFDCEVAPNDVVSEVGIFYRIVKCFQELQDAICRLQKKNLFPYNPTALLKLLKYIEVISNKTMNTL
UniProt Q8NEV1, whole entry, looked up: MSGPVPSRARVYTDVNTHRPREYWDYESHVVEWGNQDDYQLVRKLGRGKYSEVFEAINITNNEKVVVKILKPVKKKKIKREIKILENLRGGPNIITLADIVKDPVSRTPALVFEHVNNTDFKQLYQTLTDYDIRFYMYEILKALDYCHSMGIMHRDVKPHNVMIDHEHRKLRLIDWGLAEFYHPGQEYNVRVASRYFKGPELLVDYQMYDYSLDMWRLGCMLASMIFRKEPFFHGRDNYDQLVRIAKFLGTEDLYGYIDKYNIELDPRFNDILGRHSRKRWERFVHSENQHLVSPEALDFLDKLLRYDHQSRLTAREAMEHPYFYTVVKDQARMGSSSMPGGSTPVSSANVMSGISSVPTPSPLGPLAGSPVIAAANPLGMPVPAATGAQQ
UniProt Q8NEZ3: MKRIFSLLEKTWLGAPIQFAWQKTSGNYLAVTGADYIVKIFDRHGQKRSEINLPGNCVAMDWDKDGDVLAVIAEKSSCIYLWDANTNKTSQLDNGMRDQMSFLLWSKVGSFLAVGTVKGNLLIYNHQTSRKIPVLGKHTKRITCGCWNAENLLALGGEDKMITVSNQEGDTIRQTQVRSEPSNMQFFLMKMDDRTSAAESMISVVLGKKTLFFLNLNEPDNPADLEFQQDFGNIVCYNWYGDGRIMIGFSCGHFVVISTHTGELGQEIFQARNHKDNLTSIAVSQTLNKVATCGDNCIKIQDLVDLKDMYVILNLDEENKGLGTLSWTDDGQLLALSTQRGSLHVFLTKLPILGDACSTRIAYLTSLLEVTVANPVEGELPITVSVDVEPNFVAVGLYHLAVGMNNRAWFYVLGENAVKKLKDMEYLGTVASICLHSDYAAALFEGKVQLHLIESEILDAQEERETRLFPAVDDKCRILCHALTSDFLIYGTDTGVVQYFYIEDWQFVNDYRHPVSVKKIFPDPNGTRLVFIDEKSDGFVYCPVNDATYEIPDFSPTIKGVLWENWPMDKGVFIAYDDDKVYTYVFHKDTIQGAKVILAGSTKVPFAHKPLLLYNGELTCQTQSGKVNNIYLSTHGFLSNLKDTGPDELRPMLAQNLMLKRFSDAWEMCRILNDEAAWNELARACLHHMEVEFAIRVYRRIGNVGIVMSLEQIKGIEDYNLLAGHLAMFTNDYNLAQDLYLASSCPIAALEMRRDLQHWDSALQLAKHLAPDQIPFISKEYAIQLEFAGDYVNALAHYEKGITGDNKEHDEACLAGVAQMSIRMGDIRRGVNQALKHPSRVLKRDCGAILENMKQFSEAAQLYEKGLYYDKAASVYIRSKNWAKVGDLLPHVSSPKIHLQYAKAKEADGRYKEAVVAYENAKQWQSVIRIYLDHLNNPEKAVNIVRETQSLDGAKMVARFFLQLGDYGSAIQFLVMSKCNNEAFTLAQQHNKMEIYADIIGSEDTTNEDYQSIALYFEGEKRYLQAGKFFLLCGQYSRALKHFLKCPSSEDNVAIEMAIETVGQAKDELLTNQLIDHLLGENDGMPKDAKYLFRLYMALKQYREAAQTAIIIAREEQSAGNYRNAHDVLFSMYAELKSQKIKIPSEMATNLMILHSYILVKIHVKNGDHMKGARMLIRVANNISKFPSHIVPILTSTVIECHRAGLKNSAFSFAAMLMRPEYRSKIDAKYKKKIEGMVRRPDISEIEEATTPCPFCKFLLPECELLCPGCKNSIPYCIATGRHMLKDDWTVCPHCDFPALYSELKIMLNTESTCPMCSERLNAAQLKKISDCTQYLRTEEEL
UniProt Q8NHS0: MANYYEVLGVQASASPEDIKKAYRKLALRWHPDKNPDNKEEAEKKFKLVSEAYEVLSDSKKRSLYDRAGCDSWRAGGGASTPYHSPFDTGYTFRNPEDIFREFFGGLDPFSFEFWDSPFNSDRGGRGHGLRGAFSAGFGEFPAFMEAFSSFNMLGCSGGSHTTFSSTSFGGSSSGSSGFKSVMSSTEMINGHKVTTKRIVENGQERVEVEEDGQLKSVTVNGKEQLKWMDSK
UniProt Q8N4Q0: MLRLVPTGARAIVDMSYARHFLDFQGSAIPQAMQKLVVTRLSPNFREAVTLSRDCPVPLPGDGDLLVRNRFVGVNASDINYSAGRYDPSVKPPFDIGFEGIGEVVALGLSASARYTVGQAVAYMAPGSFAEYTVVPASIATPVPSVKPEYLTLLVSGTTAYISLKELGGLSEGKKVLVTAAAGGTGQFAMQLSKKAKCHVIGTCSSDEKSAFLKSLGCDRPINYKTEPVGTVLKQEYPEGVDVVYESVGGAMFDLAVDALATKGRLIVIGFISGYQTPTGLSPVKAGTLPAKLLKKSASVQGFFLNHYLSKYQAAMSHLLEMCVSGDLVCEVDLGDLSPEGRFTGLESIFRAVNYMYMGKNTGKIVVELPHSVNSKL
UniProt Q8TAS1: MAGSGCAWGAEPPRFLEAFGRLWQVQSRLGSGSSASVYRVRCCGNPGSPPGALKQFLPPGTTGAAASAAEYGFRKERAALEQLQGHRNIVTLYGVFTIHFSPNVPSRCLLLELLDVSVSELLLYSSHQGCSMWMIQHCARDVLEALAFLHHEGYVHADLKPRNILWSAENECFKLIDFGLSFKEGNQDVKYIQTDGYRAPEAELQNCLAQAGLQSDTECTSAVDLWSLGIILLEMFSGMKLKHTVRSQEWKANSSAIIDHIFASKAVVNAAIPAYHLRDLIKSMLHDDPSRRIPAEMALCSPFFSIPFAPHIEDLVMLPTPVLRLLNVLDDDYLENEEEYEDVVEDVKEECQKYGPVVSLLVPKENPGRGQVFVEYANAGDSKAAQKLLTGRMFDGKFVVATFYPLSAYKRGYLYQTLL
UniProt Q8TAD8: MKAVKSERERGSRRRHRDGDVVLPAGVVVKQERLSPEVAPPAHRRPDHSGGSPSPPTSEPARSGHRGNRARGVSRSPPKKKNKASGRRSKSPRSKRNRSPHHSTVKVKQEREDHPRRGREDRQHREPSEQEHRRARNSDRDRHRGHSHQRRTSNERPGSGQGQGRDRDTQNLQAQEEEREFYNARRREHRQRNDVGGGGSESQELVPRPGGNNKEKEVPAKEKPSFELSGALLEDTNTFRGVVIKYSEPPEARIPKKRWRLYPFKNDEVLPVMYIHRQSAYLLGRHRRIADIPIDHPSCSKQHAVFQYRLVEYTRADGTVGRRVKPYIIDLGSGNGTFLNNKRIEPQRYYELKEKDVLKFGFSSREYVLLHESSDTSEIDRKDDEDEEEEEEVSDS
UniProt Q8TB61: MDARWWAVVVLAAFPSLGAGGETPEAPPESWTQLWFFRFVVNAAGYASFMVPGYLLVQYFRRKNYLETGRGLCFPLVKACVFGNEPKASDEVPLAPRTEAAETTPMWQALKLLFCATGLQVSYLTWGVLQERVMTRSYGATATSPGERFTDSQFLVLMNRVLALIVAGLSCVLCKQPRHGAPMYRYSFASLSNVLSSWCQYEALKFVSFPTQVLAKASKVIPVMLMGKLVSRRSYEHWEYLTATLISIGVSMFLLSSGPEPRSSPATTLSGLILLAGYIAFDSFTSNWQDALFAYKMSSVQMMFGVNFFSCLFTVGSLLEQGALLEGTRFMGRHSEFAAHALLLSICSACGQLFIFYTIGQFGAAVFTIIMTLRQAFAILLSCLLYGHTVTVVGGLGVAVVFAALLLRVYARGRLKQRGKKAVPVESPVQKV
UniProt Q8N4P2: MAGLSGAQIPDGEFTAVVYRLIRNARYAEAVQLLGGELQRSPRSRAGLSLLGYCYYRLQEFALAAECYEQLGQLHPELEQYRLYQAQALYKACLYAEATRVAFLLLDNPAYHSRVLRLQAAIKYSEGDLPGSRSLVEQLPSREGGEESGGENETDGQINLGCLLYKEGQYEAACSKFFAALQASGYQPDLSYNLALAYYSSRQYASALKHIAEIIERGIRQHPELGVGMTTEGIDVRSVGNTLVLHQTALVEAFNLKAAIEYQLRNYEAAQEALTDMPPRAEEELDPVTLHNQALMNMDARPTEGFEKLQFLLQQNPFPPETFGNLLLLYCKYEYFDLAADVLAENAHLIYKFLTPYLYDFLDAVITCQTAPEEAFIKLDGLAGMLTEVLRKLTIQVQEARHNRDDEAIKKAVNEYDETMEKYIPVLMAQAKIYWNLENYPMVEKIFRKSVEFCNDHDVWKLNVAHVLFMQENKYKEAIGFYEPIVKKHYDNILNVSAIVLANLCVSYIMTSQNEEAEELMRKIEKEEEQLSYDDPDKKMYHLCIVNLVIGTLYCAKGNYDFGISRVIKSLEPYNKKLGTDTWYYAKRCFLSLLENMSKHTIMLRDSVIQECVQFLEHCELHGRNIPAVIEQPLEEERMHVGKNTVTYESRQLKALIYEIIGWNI
UniProt Q8N9N7: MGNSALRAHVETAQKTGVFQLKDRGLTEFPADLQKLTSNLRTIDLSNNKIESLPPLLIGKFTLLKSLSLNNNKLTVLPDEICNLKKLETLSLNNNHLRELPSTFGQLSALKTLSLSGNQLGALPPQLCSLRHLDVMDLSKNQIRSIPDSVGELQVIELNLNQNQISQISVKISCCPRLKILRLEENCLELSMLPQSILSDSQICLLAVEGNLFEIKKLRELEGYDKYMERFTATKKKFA

For “BAHD1 (peptide sequence: LASLNAEALNNLLLER, peptide start residue: 119) (UniProt Q8TBE0)”, which log2 fold change is on record?
Its log2 fold change is -0.505.

How did the log2 fold change turn out when “UniProt Q8NFP7 (peptide sequence: EWFKVEDAIK, peptide start residue: 118)” was run?
Its log2 fold change is -0.0987.

Which log2 fold change does the source give for “UniProt Q8TAB5 (peptide sequence: SSSPEPACGTPR, peptide start residue: 124)” here?
The log2 fold change was 0.486.

How did the log2 fold change turn out when “CDC26 (peptide sequence: LDDIEEFENIRK, peptide start residue: 13) (UniProt Q8NHZ8)” was run?
The log2 fold change was -0.0987.

How did the log2 fold change turn out when “RDH13 (peptide sequence: LQGSGVTVNALHPGVAR, peptide start residue: 218) (UniProt Q8NBN7)” was run?
Its log2 fold change is 0.347.

How did the log2 fold change turn out when “UniProt Q8N823 (peptide sequence: AFNCSSLLR, peptide start residue: 239)” was run?
Its log2 fold change is -0.23.

For “LINS1 (peptide sequence: HQPISVGVAPIAVAPVCLK, peptide start residue: 59) (UniProt Q8NG48)”, which log2 fold change is on record?
The log2 fold change was 0.6.

“UniProt Q8NFJ9 (peptide sequence: GGGLIIK, peptide start residue: 394)” was tested. Which log2 fold change did it give?
Its log2 fold change is 0.119.

Which log2 fold change does the source give for “SUMF2 (peptide sequence: EATVKPFAIDIFPVTNKDFR, peptide start residue: 56) (UniProt Q8NBJ7)” here?
Its log2 fold change is -0.262.

How did the log2 fold change turn out when “TTL (peptide sequence: YLEHPLLLEPGHR, peptide start residue: 185) (UniProt Q8NG68)” was run?
The log2 fold change was 0.379.

With “UBA3 (peptide sequence: ADGEEPEKK, peptide start residue: 2) (UniProt Q8TBC4)” as the target, how does the log2 fold change read?
Its log2 fold change is -0.171.

How did the log2 fold change turn out when “UniProt Q8NEV1 (peptide sequence: ARVYTDVNTHRPR, peptide start residue: 9)” was run?
The log2 fold change was -0.578.

How did the log2 fold change turn out when “WDR19 (peptide sequence: IYLDHLNNPEK, peptide start residue: 930) (UniProt Q8NEZ3)” was run?
Its log2 fold change is 0.287.

“UniProt Q8NHS0 (peptide sequence: IVENGQER, peptide start residue: 208)” was tested. Which log2 fold change did it give?
Its log2 fold change is -0.0836.

For “UniProt Q8NE65 (peptide sequence: VMLENFR, peptide start residue: 63)”, which log2 fold change is on record?
Its log2 fold change is -0.349.

For “WDSUB1 (peptide sequence: EAMENWISKK, peptide start residue: 432) (UniProt Q8N9V3)”, which log2 fold change is on record?
The log2 fold change was -0.244.

For “ZADH2 (peptide sequence: SASVQGFFLNHYLSK, peptide start residue: 297) (UniProt Q8N4Q0)”, which log2 fold change is on record?
Its log2 fold change is 0.433.

For “VPS37A (peptide sequence: MEIDDFLSSFMEKR, peptide start residue: 357) (UniProt Q8NEZ2)”, which log2 fold change is on record?
Its log2 fold change is 0.121.

For “GRPEL2 (peptide sequence: VEVAVESQR, peptide start residue: 215) (UniProt Q8TAA5)”, which log2 fold change is on record?
Its log2 fold change is -0.102.

“UHMK1 (peptide sequence: YGPVVSLLVPK, peptide start residue: 354) (UniProt Q8TAS1)” was tested. Which log2 fold change did it give?
The log2 fold change was 0.165.

“SNIP1 (peptide sequence: SPHHSTVK, peptide start residue: 99) (UniProt Q8TAD8)” was tested. Which log2 fold change did it give?
Its log2 fold change is 1.29.

For “SLC35B2 (peptide sequence: ASDEVPLAPR, peptide start residue: 88) (UniProt Q8TB61)”, which log2 fold change is on record?
Its log2 fold change is 0.0969.

For “TTC30B (peptide sequence: ACLYAEATR, peptide start residue: 92) (UniProt Q8N4P2)”, which log2 fold change is on record?
Its log2 fold change is 0.183.

“LRRC57 (peptide sequence: HLDVMDLSK, peptide start residue: 132) (UniProt Q8N9N7)” was tested. Which log2 fold change did it give?
The log2 fold change was 0.288.

With “UniProt Q8NHY6 (peptide sequence: KVMLENYR, peptide start residue: 62)” as the target, how does the log2 fold change read?
The log2 fold change was 0.206.

With “FBH1 (peptide sequence: GAVNALFTVPHTHVFYLTQSFR, peptide start residue: 682) (UniProt Q8NFZ0)” as the target, how does the log2 fold change read?
Its log2 fold change is 0.412.

From the supplement of paper PMC12819154, “High-throughput peptide-centric local stability assay extends protein–ligand identification to membrane proteins, tissues and bacteria” (Nature Structural & Molecular Biology, 2025)
